Literature values, collected in paper PMC9997069 (Molecular Pharmaceutics, 2023).

Protein sequences, listed by entry. Tags and fused reporters are not part of them. Residues count along the entry.
UniProt P02768, 25-609: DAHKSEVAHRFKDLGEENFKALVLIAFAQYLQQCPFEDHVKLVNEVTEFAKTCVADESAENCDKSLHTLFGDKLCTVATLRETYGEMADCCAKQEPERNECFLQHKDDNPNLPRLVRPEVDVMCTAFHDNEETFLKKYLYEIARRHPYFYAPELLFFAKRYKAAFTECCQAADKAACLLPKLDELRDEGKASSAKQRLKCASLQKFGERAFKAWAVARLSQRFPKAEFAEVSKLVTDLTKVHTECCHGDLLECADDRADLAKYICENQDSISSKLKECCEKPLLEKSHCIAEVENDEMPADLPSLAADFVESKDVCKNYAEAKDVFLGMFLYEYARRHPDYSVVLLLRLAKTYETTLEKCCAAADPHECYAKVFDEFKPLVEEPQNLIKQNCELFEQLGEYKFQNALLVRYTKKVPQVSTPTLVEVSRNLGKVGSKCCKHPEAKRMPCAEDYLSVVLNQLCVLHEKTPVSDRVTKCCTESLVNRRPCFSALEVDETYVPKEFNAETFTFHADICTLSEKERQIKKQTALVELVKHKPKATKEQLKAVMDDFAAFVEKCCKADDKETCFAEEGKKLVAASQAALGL

Molecular target: T1, HSA (Homo sapiens, UniProt P02768)
T1 construct: purchased Sigma-Aldrich
Conditions: 310 K; cited from earlier work

NS(=O)(=O)c1cc(C(=O)O)c(NCc2ccco2)cc1Cl [furosemide]
binding constant to HSA: 1.99 × 10^5 M^–1
